Assay results: article PMC6554949, “Arabidopsis thaliana organelles mimic the T7 phage DNA replisome with specific interactions between Twinkle protein and DNA polymerases Pol1A and Pol1B” (BMC Plant Biology, 2019)
Results are given in words; binding and its absence hold for the method and conditions named. Some entries that bind do so weakly or less than the wild type.

Legend:
[1] = target: T1, Arabidopsis DNA polymerase 1B (yeast two-hybrid construct of the tri-alanine experiment) (Arabidopsis thaliana) (UniProt Q84ND9); assay: two-hybrid; tri-alanine mutants in pGAD or pGBK transformed into yeast, interaction measured on selective media
T1 sequence: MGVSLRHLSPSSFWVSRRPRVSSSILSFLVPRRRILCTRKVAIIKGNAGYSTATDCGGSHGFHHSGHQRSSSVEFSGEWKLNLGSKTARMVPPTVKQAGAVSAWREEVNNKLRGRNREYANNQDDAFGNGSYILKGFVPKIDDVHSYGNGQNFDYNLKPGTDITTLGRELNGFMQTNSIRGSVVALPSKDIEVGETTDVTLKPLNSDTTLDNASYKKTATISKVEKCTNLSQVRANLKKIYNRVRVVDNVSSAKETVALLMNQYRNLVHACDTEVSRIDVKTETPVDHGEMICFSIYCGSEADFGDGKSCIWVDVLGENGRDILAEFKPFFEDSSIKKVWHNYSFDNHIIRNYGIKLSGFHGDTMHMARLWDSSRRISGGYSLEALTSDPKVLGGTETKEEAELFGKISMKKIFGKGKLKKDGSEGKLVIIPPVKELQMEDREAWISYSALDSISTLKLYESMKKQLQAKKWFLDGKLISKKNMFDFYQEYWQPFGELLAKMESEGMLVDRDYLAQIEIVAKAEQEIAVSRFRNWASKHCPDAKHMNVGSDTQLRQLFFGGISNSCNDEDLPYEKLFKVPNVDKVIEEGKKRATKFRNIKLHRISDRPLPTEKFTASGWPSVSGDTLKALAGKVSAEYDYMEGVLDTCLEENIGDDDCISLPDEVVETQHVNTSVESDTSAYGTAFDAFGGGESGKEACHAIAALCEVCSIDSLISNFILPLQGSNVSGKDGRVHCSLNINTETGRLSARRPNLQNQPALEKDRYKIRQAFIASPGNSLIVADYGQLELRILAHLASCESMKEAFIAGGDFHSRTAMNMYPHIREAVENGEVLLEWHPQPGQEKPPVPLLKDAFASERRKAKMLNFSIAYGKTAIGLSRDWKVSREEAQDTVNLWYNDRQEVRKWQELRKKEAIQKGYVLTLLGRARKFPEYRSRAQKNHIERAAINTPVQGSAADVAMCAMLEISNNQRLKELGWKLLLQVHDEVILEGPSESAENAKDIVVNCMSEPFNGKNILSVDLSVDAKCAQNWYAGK

[2] = target: T2, Arabidopsis DNA polymerase 1A (yeast two-hybrid construct, parent of the tri-alanine mutants) (Arabidopsis thaliana) (UniProt F4I6M1); assay: as above
T2 sequence: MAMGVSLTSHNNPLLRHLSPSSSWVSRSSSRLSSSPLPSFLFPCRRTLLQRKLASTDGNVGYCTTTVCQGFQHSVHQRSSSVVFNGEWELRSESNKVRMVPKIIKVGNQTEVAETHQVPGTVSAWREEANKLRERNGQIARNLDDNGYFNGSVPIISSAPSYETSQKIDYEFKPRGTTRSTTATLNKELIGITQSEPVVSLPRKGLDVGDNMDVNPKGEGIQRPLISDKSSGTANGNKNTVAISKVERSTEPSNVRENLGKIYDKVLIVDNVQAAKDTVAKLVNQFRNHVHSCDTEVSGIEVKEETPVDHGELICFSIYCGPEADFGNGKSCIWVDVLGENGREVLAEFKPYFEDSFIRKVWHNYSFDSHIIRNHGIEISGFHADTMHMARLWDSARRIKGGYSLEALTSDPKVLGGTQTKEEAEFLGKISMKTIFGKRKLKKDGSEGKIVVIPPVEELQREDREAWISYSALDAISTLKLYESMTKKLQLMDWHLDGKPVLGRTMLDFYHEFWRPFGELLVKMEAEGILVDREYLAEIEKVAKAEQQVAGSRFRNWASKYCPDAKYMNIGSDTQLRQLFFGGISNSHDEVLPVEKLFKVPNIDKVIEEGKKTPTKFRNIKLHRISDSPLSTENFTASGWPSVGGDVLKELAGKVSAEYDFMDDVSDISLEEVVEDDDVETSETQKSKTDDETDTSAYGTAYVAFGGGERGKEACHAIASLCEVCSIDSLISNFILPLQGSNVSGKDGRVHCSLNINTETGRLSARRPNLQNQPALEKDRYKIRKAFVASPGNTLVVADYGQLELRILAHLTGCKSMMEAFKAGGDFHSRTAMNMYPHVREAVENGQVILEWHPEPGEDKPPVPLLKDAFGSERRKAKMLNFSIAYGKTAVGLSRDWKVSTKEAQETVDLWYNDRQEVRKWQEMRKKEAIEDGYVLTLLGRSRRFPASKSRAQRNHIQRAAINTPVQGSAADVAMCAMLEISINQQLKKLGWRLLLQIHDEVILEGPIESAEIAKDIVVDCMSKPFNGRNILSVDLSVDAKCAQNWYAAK

B1: Arabidopsis Twinkle DNA primase/helicase (yeast two-hybrid construct, parent of the tri-alanine mutants) (protein, UniProt B5X582 1-709)
chain: MRFLLRLPQIHFRKLSCSMSVLMGSKQFLEFCLLPSFASYPSSPSYSSSRQVSSVSRRFRPVLASRPVSKNSPYYQRTNGLSSYNSIPRVPTPVDTEVEADKRVVLSRLVTLRRKLAEQGVDAENCPPGQHSGLICPTCEGGNSGEKSLSLFIAPDGSSATWNCFRGKCGLKGGVRADGGLASADPIEKVERKITVEGIELEPLCDEIQDYFAARAISRKTLERNRVMQKRIGDEIVIAFTYWQRGELVSCKYRSLTKMFFQERKTRRILYGLDDIEKTSEVIIVEGEIDKLAMEEAGFLNCVSVPDGAPAKVSSKEIPSEDKDTKYKFLWNCNDYLKKASRIVIATDGDGPGQAMAEEIARRLGKERCWRVKWPKKSEDEHFKDANEVLMSKGPHLLKEAILDAEPYPILGLFSFKDFFDEIDAYYDRTHGHEYGVSTGWKNLDNLYSVVPGELTVVTGIPNSGKSEWIDAMLCNLNHSVGWKFALCSMENKVRDHARKLLEKHIKKPFFDADYGRSVQRMSVEEKDEGKKWLNDTFYPIRCEMDSLPSIDWVLERAKAAVLRYGIRGLVIDPYNELDHQRTPRQTETEYVSQMLTKIKRFSQHHSCHVWFVAHPKQLQHWDGGAPNLYDISGSAHFINKCDNGIIVHRNRDENAGPLDLVQIGVRKVRNKVAGQIGDAYLCYDRTTGSYSDSPVTPGMPERRSPKRY
[1]
  binding: binds
[2]
  binding: binds
